No constants are given. Whether binding was seen depends on the method and setting. Binding can be weak; no strength is given. Where a sequence is shown, tags or fusion partners need not be part of it.
Biological target: MipZ (Caulobacter crescentus)
Test: two-hybrid; bacterial two-hybrid assay in E. coli with T18-ParB

binding: binds
B1: Caulobacter crescentus ParB fused to the T18 fragment of Bordetella pertussis adenylate cyclase (protein, UniProt B8GW30 1-304)
chain: MESVVVGEPGMSEGRRGLGRGLSALLGEVDAAPAQAPGEQLGGSREAPIEILQRNPDQPRRTFREEDLEDLSNSIREKGVLQPILVRPSPDTAGEYQIVAGERRWRAAQRAGLKTVPIMVRELDDLAVLEIGIIENVQRADLNVLEEALSYKVLMEKFERTQENIAQTIGKSRSHVANTMRLLALPDEVQSYLVSGELTAGHARAIAAAADPVALAKQIIEGGLSVRETEALARKAPNLSAGKSKGGRPPRVKDTDTQALESDLSSVLGLDVSIDHRGSTGTLTITYATLEQLDDLCNRLTRGI

Reference: publication PMC5815017
